Laboratory results reported in paper doi:10.1101/2024.08.17.24311658.
No constants are given. Whether binding was seen depends on the method and setting. In cells and extracts the contact can be indirect. Some results given as binding are weak or reduced against the parent protein; the word gives no strength.

The chains behind the UniProt entries cited, without tags or fusion partners. Where a name states a change or a piece, a line headed by the entry shows the natural chain unless it says otherwise.
UniProt Q567U6: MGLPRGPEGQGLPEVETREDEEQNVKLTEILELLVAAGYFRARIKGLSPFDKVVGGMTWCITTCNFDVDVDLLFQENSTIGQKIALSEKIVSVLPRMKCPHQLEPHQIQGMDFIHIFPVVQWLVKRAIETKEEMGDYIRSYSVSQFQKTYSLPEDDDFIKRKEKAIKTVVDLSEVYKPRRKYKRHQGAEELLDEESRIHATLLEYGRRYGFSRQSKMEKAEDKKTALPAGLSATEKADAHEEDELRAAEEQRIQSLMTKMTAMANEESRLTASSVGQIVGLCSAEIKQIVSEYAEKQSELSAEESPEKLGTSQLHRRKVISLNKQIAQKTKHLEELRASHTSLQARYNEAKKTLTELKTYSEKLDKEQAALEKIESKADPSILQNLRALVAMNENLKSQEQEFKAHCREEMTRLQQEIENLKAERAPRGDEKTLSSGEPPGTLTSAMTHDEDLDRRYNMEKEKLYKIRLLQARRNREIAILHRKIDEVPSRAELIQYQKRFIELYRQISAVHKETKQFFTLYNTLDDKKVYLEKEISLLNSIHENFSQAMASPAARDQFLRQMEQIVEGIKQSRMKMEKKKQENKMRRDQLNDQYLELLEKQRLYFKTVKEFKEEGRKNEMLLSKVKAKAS
UniProt Q9H0A8: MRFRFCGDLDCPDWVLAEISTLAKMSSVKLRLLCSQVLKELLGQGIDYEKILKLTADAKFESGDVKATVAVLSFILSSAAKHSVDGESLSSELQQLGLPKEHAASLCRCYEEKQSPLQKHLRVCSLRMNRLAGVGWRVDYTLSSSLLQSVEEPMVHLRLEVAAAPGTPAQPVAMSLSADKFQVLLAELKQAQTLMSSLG
UniProt O60826: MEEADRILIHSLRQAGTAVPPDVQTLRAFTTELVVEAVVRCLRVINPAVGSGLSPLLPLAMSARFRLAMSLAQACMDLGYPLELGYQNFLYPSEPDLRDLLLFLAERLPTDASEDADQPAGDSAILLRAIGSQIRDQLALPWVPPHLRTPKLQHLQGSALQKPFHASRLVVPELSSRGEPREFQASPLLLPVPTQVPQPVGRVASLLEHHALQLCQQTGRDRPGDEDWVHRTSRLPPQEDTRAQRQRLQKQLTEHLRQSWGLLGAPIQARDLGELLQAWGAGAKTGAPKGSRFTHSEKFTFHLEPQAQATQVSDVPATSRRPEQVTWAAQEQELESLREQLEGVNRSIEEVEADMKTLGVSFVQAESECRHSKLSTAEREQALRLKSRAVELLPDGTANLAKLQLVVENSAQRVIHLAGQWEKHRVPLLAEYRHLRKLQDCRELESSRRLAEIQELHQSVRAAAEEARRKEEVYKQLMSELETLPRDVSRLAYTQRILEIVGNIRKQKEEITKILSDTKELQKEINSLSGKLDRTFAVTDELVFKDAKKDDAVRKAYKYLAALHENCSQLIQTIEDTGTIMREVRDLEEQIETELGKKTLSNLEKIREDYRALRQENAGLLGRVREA
UniProt Q8N668: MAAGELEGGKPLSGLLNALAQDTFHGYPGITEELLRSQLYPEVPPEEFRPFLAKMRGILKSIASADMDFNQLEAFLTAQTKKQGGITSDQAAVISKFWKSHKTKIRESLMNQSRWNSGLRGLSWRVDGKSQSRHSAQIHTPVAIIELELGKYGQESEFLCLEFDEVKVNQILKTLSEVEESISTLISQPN
UniProt Q86X83: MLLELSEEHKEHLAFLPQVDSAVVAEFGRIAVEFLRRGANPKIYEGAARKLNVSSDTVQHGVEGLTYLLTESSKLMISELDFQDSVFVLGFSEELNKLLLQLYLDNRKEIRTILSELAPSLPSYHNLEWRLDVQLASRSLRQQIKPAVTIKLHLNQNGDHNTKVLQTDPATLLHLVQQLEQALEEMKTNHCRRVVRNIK
UniProt Q9UBI1: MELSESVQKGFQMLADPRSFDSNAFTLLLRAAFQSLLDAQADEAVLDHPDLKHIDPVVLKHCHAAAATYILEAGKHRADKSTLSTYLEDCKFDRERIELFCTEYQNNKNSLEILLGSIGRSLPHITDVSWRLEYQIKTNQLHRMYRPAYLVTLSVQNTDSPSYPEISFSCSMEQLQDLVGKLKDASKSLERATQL
UniProt Q9GZQ3: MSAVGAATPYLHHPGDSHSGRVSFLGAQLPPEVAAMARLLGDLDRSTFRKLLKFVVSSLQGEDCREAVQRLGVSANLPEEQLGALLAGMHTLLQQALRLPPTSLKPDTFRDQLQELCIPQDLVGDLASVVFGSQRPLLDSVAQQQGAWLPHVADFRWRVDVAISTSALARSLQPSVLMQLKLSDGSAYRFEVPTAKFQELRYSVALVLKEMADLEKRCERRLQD
UniProt Q7Z4G1: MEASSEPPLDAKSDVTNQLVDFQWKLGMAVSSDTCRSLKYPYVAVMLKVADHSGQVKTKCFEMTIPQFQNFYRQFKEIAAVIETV
UniProt Q86VX2: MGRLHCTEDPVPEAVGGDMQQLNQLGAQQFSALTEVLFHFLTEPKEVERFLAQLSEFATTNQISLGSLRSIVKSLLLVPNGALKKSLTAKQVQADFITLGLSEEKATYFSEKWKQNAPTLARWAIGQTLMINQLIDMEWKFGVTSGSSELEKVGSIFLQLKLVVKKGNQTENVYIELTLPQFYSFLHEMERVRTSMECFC
UniProt Q9NX08: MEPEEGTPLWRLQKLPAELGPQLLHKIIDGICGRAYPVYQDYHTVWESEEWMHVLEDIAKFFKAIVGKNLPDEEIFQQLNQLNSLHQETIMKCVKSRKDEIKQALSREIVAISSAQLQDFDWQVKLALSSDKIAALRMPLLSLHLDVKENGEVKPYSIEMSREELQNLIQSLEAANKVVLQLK
UniProt Q9P000: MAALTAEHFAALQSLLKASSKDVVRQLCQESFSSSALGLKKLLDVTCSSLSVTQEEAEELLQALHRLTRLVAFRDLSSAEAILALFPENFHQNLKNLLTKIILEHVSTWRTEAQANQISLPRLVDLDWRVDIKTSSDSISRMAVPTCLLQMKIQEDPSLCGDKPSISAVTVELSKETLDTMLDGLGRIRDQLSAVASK
UniProt Q9Y6G5: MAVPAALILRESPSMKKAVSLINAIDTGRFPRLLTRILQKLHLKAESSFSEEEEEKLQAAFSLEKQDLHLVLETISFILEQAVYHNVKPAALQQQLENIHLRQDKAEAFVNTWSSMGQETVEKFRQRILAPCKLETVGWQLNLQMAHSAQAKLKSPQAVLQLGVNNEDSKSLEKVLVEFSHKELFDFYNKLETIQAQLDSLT
UniProt Q8TCE6: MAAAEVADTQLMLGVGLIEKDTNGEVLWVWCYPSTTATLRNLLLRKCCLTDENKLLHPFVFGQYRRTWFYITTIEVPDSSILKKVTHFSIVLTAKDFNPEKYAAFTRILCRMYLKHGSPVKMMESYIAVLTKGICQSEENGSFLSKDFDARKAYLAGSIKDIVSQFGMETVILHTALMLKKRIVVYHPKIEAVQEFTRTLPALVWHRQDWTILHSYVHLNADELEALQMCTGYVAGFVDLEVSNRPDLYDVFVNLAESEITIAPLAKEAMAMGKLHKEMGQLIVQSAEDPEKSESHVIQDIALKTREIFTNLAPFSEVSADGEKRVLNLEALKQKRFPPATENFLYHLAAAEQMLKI

Assays:
Assay in all cases: co-IP
[1] = target: GFP-CCDC93 wild-type (human) (UniProt Q567U6)
[2] = target: GFP-CCDC93-S631A (human) (UniProt Q567U6)
[3] = target: GFP-COMMD4 wild-type (human) (UniProt Q9H0A8)
[4] = target: GFP-COMMD4-L41R (human) (UniProt Q9H0A8)

Substance: CCC complex (from UniProt O60826;Q567U6;Q8N668;Q86X83;Q9UBI1;Q9H0A8;Q9GZQ3;Q7Z4G1;Q86VX2;Q9NX08;Q9P000;Q9Y6G5)
- binding [1]: binds
- binding [2]: binds

Substance: DENND10 (from UniProt Q8TCE6 1-357)
- binding [3]: binds
- binding [4]: binds
